Source: patent EP4520345A1, “PRODUCT” (MYNEO NV, priority 2023, dated 2025)

B1: IncPLA2G1B 231094711 151: camyopeptide translated from an ORF in camyoRNA Inc-PLA2G1B-2:3 (peptide)
chain: MFDTGCSNNKKPPMQMGLKYGWWSGNTSYTRTHGQALTLNVMVVIIRGGAGREQNLSSFAQWQYRSQ
B2: LINC024189 28443054: camyopeptide translated from an ORF in camyoRNA LINC02418:9 (peptide)
chain: MELRIISTTRAGVRQDAQSIHPMTGALCLRSAKPRSEVLTRLHQEQGTRLPRGSWSTEGRDAHKHTMSK
B3: IncHOXB815 19402135: camyopeptide translated from an ORF in camyoRNA Inc-HOXB8-1:5 (peptide)
chain: MENLLLSHPEGHLTRPLEQTKGAGSQSLRSQFSEAQEENGFSFVLVRRPSREFGFHQVLFFQKK
B4: IncTH11352 83804: camyopeptide translated from an ORF in camyoRNA Inc-TH-1:1 (peptide)
chain: MCSQWPWQNLTKSAPATRPASKDALSRRPLQLSSDCPRDTLSEHCPAKTRQLQNCERRWFHDFLAVVTAVGQLWVTLKGHSDKGHLPACVT
B5: LINC024189 42034404: camyopeptide translated from an ORF in camyoRNA LINC02418:9 (peptide)
chain: MSLLIRECLSSLYLNFSKRENAFRTSNSDGSRVFLAALFLNEDSPGGSLCCRDTQISPCSCSFQSF
B6: IncTRPC531 16031801: camyopeptide translated from an ORF in camyoRNA Inc-TRPCS-3:1 (peptide)
chain: MNVPKGQTGNSSRGPGDGGNKDHWKESDRKDGKKDQDSRSAPEPKKPEENPASKFSSASNYAALS
B7: IncTRPC531 28328: camyopeptide translated from an ORF in camyoRNA Inc-TRPCS-3:1 (peptide)
chain: MAASAKKKNKKGKTISLTDFLAEDGGTGGGSTYVSKPVSWADETMTWKEMFRQLGTVTMTMCIGCLQLTVPSFPLLHGLLGNPISTGAVFPNRHPTLLF
B8: IncTH11352 23804: camyopeptide translated from an ORF in camyoRNA Inc-TH-1:1 (peptide)
chain: MQMCSQWPWQNLTKSAPATRPASKDALSRRPLQLSSDCPRDTLSEHCPAKTRQLQNCERRWFHDFLAVVTAVGQLWVTLKGHSDKGHLPACVT
B9: IncSLC39A1 071155617 69: camyopeptide translated from an ORF in camyoRNA Inc-SLC39A10-7:1 (peptide)
chain: MKRRNLKTDTPKENAMWRHREKLAIYKPTRIAWNKFFHHTPQKESTLTAPPLQSCSLQNCETIHFCCLRR
B10: IncSLC39A1 071154117 69: camyopeptide translated from an ORF in camyoRNA Inc-SLC39A10-7:1 (peptide)
chain: MVDVLMKRRNLKTDTPKENAMWRHREKLAIYKPTRIAWNKFFHHTPQKESTLTAPPLQSCSLQNCETIHFCCLRR
B11: IncTACR311 255462: camyopeptide translated from an ORF in camyoRNA Inc-TACR3-1:1 (peptide)
chain: MKRAWPPCHSGERQSKTKKTESCSATQAGVEGSGVISAHFNLRLLGSSDSPASASRVAGTTAASLQVS
B12: IncSLC39A1 021699888: camyopeptide translated from an ORF in camyoRNA Inc-SLC39A10-2:1 (peptide)
chain: MYQHVHHYTVIGLGKAEEKQEPASSSYKQKSCLGVVAHACNPSTLGGQSGRITRSGDRDHPG

tested on: colorectal cancer tissue; assay: Mass spectrometry proteomics: translation of camyopeptides in colorectal cancer tissue samples; conditions: share of colorectal cancer tissue samples in which the camyopeptide is detected as translated
Description: Mass spectrometry was used to derive proteomics data from the colorectal cancer tissue. The data was analysed and 79 polypeptides (camyopeptides; and defined according to SEQ ID NOs 19-97) corresponding to open reading frames (ORFs) in the 18 camyoRNAs defined according to SEQ ID NOs 1-18 were determined as being translated.

Row | Molecule | Translation Coverage (MS) [%]
1 | IncFANCM1 0122163: camyopeptide translated from an ORF in camyoRNA Inc-FANCM-10:1 (MMARLKTVRSSCLDRKATGCSPGSCVRILTALTMPRKGRSCCFIRD) | 8.42
2 | IncFANCM1 0125163: camyopeptide translated from an ORF in camyoRNA Inc-FANCM-10:1 (MARLKTVRSSCLDRKATGCSPGSCVRILTALTMPRKGRSCCFIRD) | 8.42
3 | IncSLC39A1 071160117 69: camyopeptide translated from an ORF in camyoRNA Inc-SLC39A10-7:1 (MWRHREKLAIYKPTRIAWNKFFHHTPQKESTLTAPPLQSCSLQNCETIHFCCLRR) | 1.05
4 | LINC024189 23092465: camyopeptide translated from an ORF in camyoRNA LINC02418:9 (MAAEPLVGAECRVCSVNMPGKGIMHVRDRVEKDCARLHHTTQNGTQFRTYK) | 14.74
5 | B1 | 16.84
6 | B2 | 3.16
7 | B3 | 5.26
8 | B4 | 5.26
9 | B5 | 1.05
10 | B6 | 81.05
11 | B7 | 12.63
12 | B8 | 5.26
13 | B9 | 9.47
14 | B10 | 9.47
15 | B11 | 3.16
16 | B12 | 20
